The text below walks through data of patent US9290459B1, “Substituted bicyclic dihydropyrimidinones and their use as inhibitors of neutrophil elastase activity” (Boehringer Ingelheim International GmbH, priority 2013, dated 2016).

This data set concerns Caco-2 cells. As to the kind of experiment: Drug transport across human Caco-2 cells. Format: in vitro ADME. Conditions: Caco-2 monolayers, apical-to-basal, pH 7.2, 37° C. For orientation: Caco-2 monolayers are a common model of the intestinal barrier.

The source holds more than one record for some entries. This list holds those alone. An entry can have further records. The values listed for one entry differ, and nothing given here explains why; they may come from other doses, times, organisms or constructs than stated.

Take `C[C@H](O)CNC(=O)N1C(=O)N(c2cccc(C(F)(F)F)c2)C2=C(C(=O)CC2)C1c1ccc(C#N)cc1` (stereo partly shown) [Example 41.1]: the PEAB is 0.00000816 cm/s and 0.0000188 cm/s.
